{"source": "PubChem BioAssay AID1159578 – Peter MacCallum Cancer Centre – 2015", "test": "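Genome-wide hunt for genes controlling movement of lymphatic endothelial cells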 (primary screen)", "system": "human lymphatic endothelial cells", "reagents": "siRNA pool against human genes, 40 nM", "duration": "48 h after transfection", "detection": "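High-content imaging of dye-stained cells in a scratch assay measures filled wound area and nuclei per well; duplicate means given as ratio to mock and robust z-score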", "scale": "migration robust z-score: higher = faster migration into the scratch; nuclei per well: higher = more cells in the well", "call rule": "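Migration changed when robust z exceeds 2 or falls below -2 and mean nuclei number is at least 3300; otherwise not called changed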", "calls": "active = migration changed; inactive = no migration change, or too few cells", "note": "Here is one part, drawn at random, of about 18,000 reagents. About 1,030 of them (5.7%) were called active. 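Inactive calls also include pools with fewer than 3300 nuclei, whose migration was not assessed.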 Raw values vary from plate to plate and are shown uncorrected. Further read-outs or replicates are left out here. Reagent sequences are not shown."}
The opening 2 records, to show the layout:
{"gene knocked down": "ENPP2 (ectonucleotide pyrophosphatase/phosphodiesterase 2)", "migration robust z-score": 0.31, "nuclei per well, duplicate mean": 5517, "call": "inactive"}
{"gene knocked down": "SLC30A8", "migration robust z-score": 0.18, "nuclei per well, duplicate mean": 5692, "call": "inactive"}

The list itself, from the start:
{"gene knocked down": "ENPP2 (ectonucleotide pyrophosphatase/phosphodiesterase 2)", "migration robust z-score": 0.31, "nuclei per well, duplicate mean": 5517, "call": "inactive"}
{"gene knocked down": "SLC30A8", "migration robust z-score": 0.18, "nuclei per well, duplicate mean": 5692, "call": "inactive"}
{"gene knocked down": "MYG1 (MYG1 exonuclease)", "migration robust z-score": -1.32, "nuclei per well, duplicate mean": 5256, "call": "inactive"}
{"gene knocked down": "PLCB2 (phospholipase C beta 2)", "migration robust z-score": -0.1, "nuclei per well, duplicate mean": 6058, "call": "inactive"}
{"gene knocked down": "DEFB134 (defensin beta 134)", "migration robust z-score": -0.39, "nuclei per well, duplicate mean": 5695, "call": "inactive"}
{"gene knocked down": "SPINK2 (serine peptidase inhibitor Kazal type 2)", "migration robust z-score": -0.64, "nuclei per well, duplicate mean": 4611, "call": "inactive"}
{"gene knocked down": "WHRN (whirlin)", "migration robust z-score": 1.06, "nuclei per well, duplicate mean": 5638, "call": "inactive"}
{"gene knocked down": "PIP4P1 (phosphatidylinositol-4,5-bisphosphate 4-phosphatase 1)", "migration robust z-score": -1.82, "nuclei per well, duplicate mean": 5844, "call": "inactive"}
{"gene knocked down": "ARL4C (ARF like GTPase 4C)", "migration robust z-score": 0.17, "nuclei per well, duplicate mean": 5020, "call": "inactive"}
{"gene knocked down": "HOXA5 (homeobox A5)", "migration robust z-score": -0.21, "nuclei per well, duplicate mean": 4460, "call": "inactive"}
{"gene knocked down": "BTF3L4 (basic transcription factor 3 like 4)", "migration robust z-score": 0.79, "nuclei per well, duplicate mean": 6112, "call": "inactive"}
{"gene knocked down": "SNX32 (sorting nexin 32)", "migration robust z-score": 0.44, "nuclei per well, duplicate mean": 6524, "call": "inactive"}
{"gene knocked down": "RBFOX1 (RNA binding fox-1 homolog 1)", "migration robust z-score": -0.8, "nuclei per well, duplicate mean": 7174, "call": "inactive"}
{"gene knocked down": "PDXK (pyridoxal kinase)", "migration robust z-score": -3.42, "nuclei per well, duplicate mean": 3408, "call": "active"}
{"gene knocked down": "ZC3H3 (zinc finger CCCH-type containing 3)", "migration robust z-score": 0.78, "nuclei per well, duplicate mean": 6268, "call": "inactive"}
{"gene knocked down": "OR12D2 (olfactory receptor family 12 subfamily D member 2)", "migration robust z-score": -0.76, "nuclei per well, duplicate mean": 6328, "call": "inactive"}
{"gene knocked down": "MNMIP1 (manchette microtubule inner protein 1)", "migration robust z-score": -0.24, "nuclei per well, duplicate mean": 5388, "call": "inactive"}
{"gene knocked down": "ARHGAP21 (Rho GTPase activating protein 21)", "migration robust z-score": -1.16, "nuclei per well, duplicate mean": 4724, "call": "inactive"}
{"gene knocked down": "TAS2R38 (taste 2 receptor member 38)", "migration robust z-score": -1.6, "nuclei per well, duplicate mean": 3620, "call": "inactive"}
{"gene knocked down": "LRRCC1 (leucine rich repeat and coiled-coil centrosomal protein 1)", "migration robust z-score": -0.96, "nuclei per well, duplicate mean": 4716, "call": "inactive"}
{"gene knocked down": "GRIA1 (glutamate ionotropic receptor AMPA type subunit 1)", "migration robust z-score": 1.85, "nuclei per well, duplicate mean": 6533, "call": "inactive"}
